Results on 7 molecules are retold here after PMC4366199, “Arfaptin-1 Negatively Regulates Arl1-Mediated Retrograde Transport” (PLoS ONE, 2015).

Amino acid sequences for entries named in this document (tags omitted).
UniProt Q13439: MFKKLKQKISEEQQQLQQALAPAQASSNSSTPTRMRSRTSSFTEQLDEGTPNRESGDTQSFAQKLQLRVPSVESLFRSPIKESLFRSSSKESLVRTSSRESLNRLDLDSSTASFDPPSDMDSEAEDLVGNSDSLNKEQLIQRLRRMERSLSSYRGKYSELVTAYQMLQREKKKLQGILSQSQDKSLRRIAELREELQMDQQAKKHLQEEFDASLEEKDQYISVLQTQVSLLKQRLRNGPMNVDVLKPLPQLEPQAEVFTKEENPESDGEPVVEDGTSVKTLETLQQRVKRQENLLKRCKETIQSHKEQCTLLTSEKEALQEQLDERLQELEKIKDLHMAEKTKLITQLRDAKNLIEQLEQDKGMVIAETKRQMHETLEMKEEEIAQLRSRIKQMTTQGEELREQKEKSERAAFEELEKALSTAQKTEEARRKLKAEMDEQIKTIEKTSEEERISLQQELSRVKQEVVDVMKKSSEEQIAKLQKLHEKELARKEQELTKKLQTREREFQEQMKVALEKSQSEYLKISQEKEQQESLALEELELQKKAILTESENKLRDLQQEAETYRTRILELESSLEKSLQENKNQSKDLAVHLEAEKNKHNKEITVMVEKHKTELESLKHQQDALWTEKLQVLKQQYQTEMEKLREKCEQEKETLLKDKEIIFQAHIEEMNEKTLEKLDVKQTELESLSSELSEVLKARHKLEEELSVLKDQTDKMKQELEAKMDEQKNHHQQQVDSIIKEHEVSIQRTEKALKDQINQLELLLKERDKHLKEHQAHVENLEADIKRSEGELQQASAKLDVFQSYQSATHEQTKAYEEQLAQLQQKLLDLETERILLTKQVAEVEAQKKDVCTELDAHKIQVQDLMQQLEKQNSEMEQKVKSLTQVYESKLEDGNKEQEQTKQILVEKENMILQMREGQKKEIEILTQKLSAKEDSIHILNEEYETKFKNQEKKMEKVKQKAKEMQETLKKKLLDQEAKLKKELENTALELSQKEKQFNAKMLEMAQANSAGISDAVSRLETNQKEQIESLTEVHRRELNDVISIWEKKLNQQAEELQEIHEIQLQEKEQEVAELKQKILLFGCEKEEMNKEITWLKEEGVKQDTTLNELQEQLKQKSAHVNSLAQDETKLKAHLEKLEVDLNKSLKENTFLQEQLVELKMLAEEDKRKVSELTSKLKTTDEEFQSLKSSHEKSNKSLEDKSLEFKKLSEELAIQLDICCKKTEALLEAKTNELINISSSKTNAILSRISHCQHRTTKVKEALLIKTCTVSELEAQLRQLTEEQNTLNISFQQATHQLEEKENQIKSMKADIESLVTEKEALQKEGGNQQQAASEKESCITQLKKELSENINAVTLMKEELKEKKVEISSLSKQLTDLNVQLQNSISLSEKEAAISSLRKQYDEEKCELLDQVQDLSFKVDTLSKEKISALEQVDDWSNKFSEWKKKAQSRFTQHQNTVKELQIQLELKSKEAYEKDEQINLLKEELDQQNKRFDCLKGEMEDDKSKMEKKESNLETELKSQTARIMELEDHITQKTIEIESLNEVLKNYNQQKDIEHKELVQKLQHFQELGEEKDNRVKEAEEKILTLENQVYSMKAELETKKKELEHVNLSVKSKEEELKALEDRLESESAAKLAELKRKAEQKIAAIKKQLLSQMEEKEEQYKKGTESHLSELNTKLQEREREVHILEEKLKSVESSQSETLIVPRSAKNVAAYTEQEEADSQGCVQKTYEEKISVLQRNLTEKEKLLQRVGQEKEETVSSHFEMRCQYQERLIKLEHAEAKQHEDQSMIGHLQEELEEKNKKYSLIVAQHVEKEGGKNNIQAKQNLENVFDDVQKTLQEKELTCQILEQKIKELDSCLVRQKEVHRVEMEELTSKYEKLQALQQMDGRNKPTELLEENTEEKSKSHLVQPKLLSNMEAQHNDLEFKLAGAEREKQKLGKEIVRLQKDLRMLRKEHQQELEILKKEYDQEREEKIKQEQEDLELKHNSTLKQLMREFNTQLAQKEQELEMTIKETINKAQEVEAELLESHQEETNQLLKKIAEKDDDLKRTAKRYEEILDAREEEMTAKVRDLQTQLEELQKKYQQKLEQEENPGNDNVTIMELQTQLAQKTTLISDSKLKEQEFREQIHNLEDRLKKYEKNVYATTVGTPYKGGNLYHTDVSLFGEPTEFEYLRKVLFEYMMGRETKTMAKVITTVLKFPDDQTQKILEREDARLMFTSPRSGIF

For assay [1], the target named is T1, LexA DNA-binding domain fusion of Arl1QL (human) (UniProt P40616).
T1 sequence: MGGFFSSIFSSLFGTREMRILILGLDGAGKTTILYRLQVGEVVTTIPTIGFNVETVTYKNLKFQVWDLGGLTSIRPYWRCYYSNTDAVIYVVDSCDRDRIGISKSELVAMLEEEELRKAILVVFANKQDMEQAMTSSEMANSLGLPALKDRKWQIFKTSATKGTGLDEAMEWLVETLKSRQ
Nature of the assay: two-hybrid; small GTPase fused to the LexA DNA-binding domain, arfaptin-1 constructs fused to the GAL4-activation domain, co-transformed into yeast strain L40; colonies screened for histidine auxotrophy.

In assay [2] the target is GST-Arl1TN (dominant-negative, inactive form of Arl1) (human) (UniProt P40616). Nature of the assay: pull-down; GST fusion proteins (5 μg) immobilized on glutathione-sepharose, incubated with GTPγS (QL) or GDP (TN); HeLa lysates (2.5 mg), endogenous proteins; 12.5% SDS-PAGE and western blotting; only the target purified.

These are yes or no findings as the source states them, for the method shown. For some of these results: In cells and extracts the contact can be indirect. For some of these results: Tags and fused reporters may be left off the sequences shown.

Take “arfaptin-1b-L2, GAL4-activation domain fusion (human) (domain or fragment)”: in assay [1], the binding result is given as “no binding”.

Consider “golgin-245, endogenous (from UniProt Q13439 1-2230)”, for which the binding result in assay [2] is given as “no binding”.

Consider “arfaptin-1b-L3, GAL4-activation domain fusion (human) (domain or fragment)”, for which the binding result in assay [1] is reported as “no binding”.

B1: arfaptin-2, endogenous (protein, UniProt P53365 1-341)
chain: MTDGILGKAATMEIPIHGNGEARQLPEDDGLEQDLQQVMVSGPNLNETSIVSGGYGGSGDGLIPTGSGRHPSHSTTPSGPGDEVARGIAGEKFDIVKKWGINTYKCTKQLLSERFGRGSRTVDLELELQIELLRETKRKYESVLQLGRALTAHLYSLLQTQHALGDAFADLSQKSPELQEEFGYNAETQKLLCKNGETLLGAVNFFVSSINTLVTKTMEDTLMTVKQYEAARLEYDAYRTDLEELSLGPRDAGTRGRLESAQATFQAHRDKYEKLRGDVAIKLKFLEENKIKVMHKQLLLFHNAVSAYFAGNQKQLEQTLQQFNIKLRPPGAEKPSWLEEQ
Consider B1, for which the binding result in assay [2] was “no binding”.

B2: golgin-97, endogenous (protein, UniProt Q92805 1-767)
chain: MFAKLKKKIAEETAVAQRPGGATRIPRSVSKESVASMGADSGDDFASDGSSSREDLSSQLLRRNEQIRKLEARLSDYAEQVRNLQKIKEKLEIALEKHQDSSMRKFQEQNETFQANRAKMAEGLALALARKDQEWSEKMDQLEKEKNILTAQLQEMKNQSMNLFQRRDEMDELEGFQQQELSKIKHMLLKKEESLGKMEQELEARTRELSRTQEELMNSNQMSSDLSQKLEELQRHYSTLEEQRDHVIASKTGAESKITALEQKEQELQALIQQLSIDLQKVTAETQEKEDVITHLQEKVASLEKRLEQNLSGEEHLQELLKEKTLAEQNLEDTRQQLLAARSSQAKAINTLETRVRELEQTLQASEEQLQQSKGIVAAQETQIQELAAANQESSHVQQQALALEQQFLERTQALEAQIVALERTRAADQTTAEQGMRQLEQENAALKECRNEYERSLQNHQFELKKLKEEWSQREIVSVAMAQALEEVRKQREEFQQQAANLTAIIDEKEQNLREKTEVLLQKEQEILQLERGHNSALLQIHQLQAELEALRTLKAEEAAVVAEQEDLLRLRGPLQAEALSVNESHVTSRAMQDPVFQLPTAGRTPNGEVGAMDLTQLQKEKQDLEQQLLEKNKTIKQMQQRMLELRKTLQKELKIRPDNELFEVREKPGPEMANMAPSVTNNTDLTDAREINFEYLKHVVLKFMSCRESEAFHLIKAVSVLLNFSQEEENMLKETLEYKMSWFGSKPAPKGSIRPSISNPRIPWS
For the molecule B2, in assay [2], the binding result is reported as “no binding”.

B3: arfaptin-1b (Arf-interacting protein 1b, long isoform), endogenous (natural protein, human (endogenous in HeLa), UniProt P53367 1-373, looked up)
chain: MAQESPKNSAAEIPVTSNGEVDDSREHSFNRDLKHSLPSGLGLSETQITSHGFDNTKEGVIEAGAFQGSPAPPLPSVMSPSRVAASRLAQQGSDLIVPAGGQRTQTKSGPVILADEIKNPAMEKLELVRKWSLNTYKCTRQIISEKLGRGSRTVDLELEAQIDILRDNKKKYENILKLAQTLSTQLFQMVHTQRQLGDAFADLSLKSLELHEEFGYNADTQKLLAKNGETLLGAINFFIASVNTLVNKTIEDTLMTVKQYESARIEYDAYRTDLEELNLGPRDANTLPKIEQSQHLFQAHKEKYDKMRNDVSVKLKFLEENKVKVLHNQLVLFHNAIAAYFAGNQKQLEQTLKQFHIKLKTPGVDAPSWLEEQ
notes: arfaptin-1b, long isoform of arfaptin-1 with an insertion (residues 69-100) absent from arfaptin-1a; source: endogenous, HeLa lysate
Consider B3, for which, in assay [2], the binding entry is recorded as “no binding”.

B4: arfaptin-1a (Arf-interacting protein 1, short isoform), endogenous (natural protein, human (endogenous in HeLa), UniProt P53367-2 1-341, looked up)
chain: MAQESPKNSAAEIPVTSNGEVDDSREHSFNRDLKHSLPSGLGLSETQITSHGFDNTKEGVIEAGAFQGGQRTQTKSGPVILADEIKNPAMEKLELVRKWSLNTYKCTRQIISEKLGRGSRTVDLELEAQIDILRDNKKKYENILKLAQTLSTQLFQMVHTQRQLGDAFADLSLKSLELHEEFGYNADTQKLLAKNGETLLGAINFFIASVNTLVNKTIEDTLMTVKQYESARIEYDAYRTDLEELNLGPRDANTLPKIEQSQHLFQAHKEKYDKMRNDVSVKLKFLEENKVKVLHNQLVLFHNAIAAYFAGNQKQLEQTLKQFHIKLKTPGVDAPSWLEEQ
notes: arfaptin-1a, short isoform of arfaptin-1; lacks the insertion (residues 69-100) of arfaptin-1b; also called arfaptin-1a (short form); source: endogenous, HeLa lysate
For the molecule B4, in assay [2], the binding entry is recorded as “no binding”.
